Measurements: paper PMC5807518

The chains behind the UniProt entries cited, without tags or fusion partners.
UniProt Q8C6L5: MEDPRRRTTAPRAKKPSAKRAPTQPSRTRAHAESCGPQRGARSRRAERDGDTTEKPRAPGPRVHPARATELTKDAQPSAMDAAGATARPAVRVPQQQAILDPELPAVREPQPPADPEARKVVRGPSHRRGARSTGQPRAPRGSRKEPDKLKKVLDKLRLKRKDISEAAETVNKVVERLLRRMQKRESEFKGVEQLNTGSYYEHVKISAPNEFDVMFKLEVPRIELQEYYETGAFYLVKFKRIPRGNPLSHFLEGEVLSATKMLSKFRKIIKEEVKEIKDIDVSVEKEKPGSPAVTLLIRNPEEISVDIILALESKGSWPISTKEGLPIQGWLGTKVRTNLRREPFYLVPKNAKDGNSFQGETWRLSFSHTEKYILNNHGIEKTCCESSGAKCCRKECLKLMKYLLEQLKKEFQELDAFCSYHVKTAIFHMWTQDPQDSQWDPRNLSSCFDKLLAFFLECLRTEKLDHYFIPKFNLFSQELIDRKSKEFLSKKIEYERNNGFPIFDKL

Biological target: cGAS-FLAG (cyclic GMP-AMP synthase, FLAG-tagged) (not stated (human or mouse cDNA cloned)) (UniProt Q8C6L5)
Assay: affinity purification with mass spectrometry

binding: binds
B1: Endogenous TRIM56 (protein, UniProt Q9BRZ2 1-755)
chain: MVSHGSSPSLLEALSSDFLACKICLEQLRAPKTLPCLHTYCQDCLAQLADGGRVRCPECRETVPVPPEGVASFKTNFFVNGLLDLVKARACGDLRAGKPACALCPLVGGTSTGGPATARCLDCADDLCQACADGHRCTRQTHTHRVVDLVGYRAGWYDEEARERQAAQCPQHPGEALRFLCQPCSQLLCRECRLDPHLDHPCLPLAEAVRARRPGLEGLLAGVDNNLVELEAARRVEKEALARLREQAARVGTQVEEAAEGVLRALLAQKQEVLGQLRAHVEAAEEAARERLAELEGREQVARAAAAFARRVLSLGREAEILSLEGAIAQRLRQLQGCPWAPGPAPCLLPQLELHPGLLDKNCHLLRLSFEEQQPQKDGGKDGAGTQGGEESQSRREDEPKTERQGGVQPQAGDGAQTPKEEKAQTTREEGAQTLEEDRAQTPHEDGGPQPHRGGRPNKKKKFKGRLKSISREPSPALGPNLDGSGLLPRPIFYCSFPTRMPGDKRSPRITGLCPFGPREILVADEQNRALKRFSLNGDYKGTVPVPEGCSPCSVAALQSAVAFSASARLYLINPNGEVQWRRALSLSQASHAVAALPSGDRVAVSVAGHVEVYNMEGSLATRFIPGGKASRGLRALVFLTTSPQGHFVGSDWQQNSVVICDGLGQVVGEYKGPGLHGCQPGSVSVDKKGYIFLTLREVNKVVILDPKGSLLGDFLTAYHGLEKPRVTTMVDGRYLVVSLSNGTIHIFRVRSPDS

Results are given in words; binding and its absence hold for the method and conditions named. Binding seen in cells or lysates may run through a third protein. Here binding means that the protein was enriched with, or labelled near, the bait; the list need not be complete.
